Experimental data published in PMC5651841, “The Staphylococcus aureus extracellular matrix protein (Emp) has a fibrous structure and binds to different extracellular matrices” (Scientific Reports, 2017).

Key:
Experiment in all cases: ELISA; matrix component (0.25 ug/well in 0.1 M Na2CO3, overnight 4 C) immobilised on polystyrene plates; Emp forms 0-1.5 uM added for 1 h at RT, PBST washes; detected with polyclonal anti-Emp IgG and AP-conjugated anti-rabbit IgG; KD from steady-state curves, one-site binding model; both purified
[1] = target: fibronectin
[2] = target: fibrinogen
[3] = target: vitronectin

Measured: binding

B1: Emp1 (N-terminal fragment of Emp) (domain or fragment, UniProt Q2G012 26-116)
chain: ASVTESVDKKFVVPESGINKIIPAYDEFKNSPKVNVSNLTDNKNFVASEDKLNKIADSSAASKIVDKNFVVPESKLGNIVPEYKEINNRVN
no binding (tested: up to 1.5 uM): [1] | [2] | [3]

No constants are given. Whether binding was seen depends on the method and setting.
